Counter-ions that a name gives are not always drawn. ± gives the uncertainty stated by the source. The list shows a part of the results. Plates or batches differ in their baseline, so values are only roughly comparable.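 At 6 dpf, larvae had a heat-shock-induced fluorescent stripe placed in rod outer segments; shedding distance, from stripe to outer segment tip, was measured in confocal stacks, roughly three fish per compound. Controls received 0.2% DMSO vehicle; compounds were flagged for ≥20% change versus same-week control and p < 0.001 (Dunnett test, mixed-effects models).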
These molecules were tested on Danio rerio larva rod photoreceptor outer segment (assay: rod outer segment growth distance Dg, difference from same-week DMSO control mean; higher = more outer segment growth). Conditions: 20 µM; treatment time: 4 days (6-10 dpf).

Structure (SMILES)	rod outer segment growth distance Dg [um]
CNC1CCCN(c2c(F)cc3c(=O)c(C(=O)O)cn(C4CC4)c3c2OC)C1 (stereo not drawn) [Balofloxacin]	-0.85 ± 0.21
COc1cc2c(cc1O)CC[C@@H]1[C@@H]2CC[C@]2(C)[C@@H](O)CC[C@@H]12 [2-Methoxyestradiol (2-MeOE2)]	-1.1 ± 0.24
CCCCN1CCCCC1C(=O)Nc1c(C)cccc1C (stereo not drawn) [Bupivacaine HCl]	0 ± 0.22
Cc1cnc(Nc2ccc(N3CCN(C)CC3)cc2)nc1Nc1cccc(S(=O)(=O)NC(C)(C)C)c1	-1.03 ± 0.15
Cc1nnc(C(C)C)n1C1C[C@H]2CC[C@@H](C1)N2CC[C@H](NC(=O)C1CCC(F)(F)CC1)c1ccccc1 (stereo in doubt) [Maraviroc]	-0.75 ± 0.25
Nc1nc(NCCNc2ncc(-n3ccnc3)c(-c3ccc(Cl)cc3Cl)n2)ccc1[N+](=O)[O-]	-0.48 ± 0.16
Cc1ccc(-n2[nH]c(C)c(N=Nc3cccc(-c4cccc(C(=O)O)c4)c3O)c2=O)cc1C [Eltrombopag]	-1.26 ± 0.25
Nc1ccn([C@@H]2CS[C@H](CO)O2)c(=O)n1 [Lamivudine]	-0.26 ± 0.28
CCN1C[C@H](C)n2c(c(O)c3c(=O)n(Cc4ccc(F)c(Cl)c4)nc(C(=O)NC)c32)C1=O	-1 ± 0.14
CN(C/C=C/C#CC(C)(C)C)Cc1cccc2ccccc12 [Terbinafine HCl]	-2.19 ± 0.61
CC12CC3CC(C)(C1)CC(N)(C3)C2 [Memantine HCl]	0.48 ± 0.28
Cc1cnc(NC(=O)C2=C(O)c3ccccc3S(=O)(=O)N2C)s1 [Meloxicam]	-0.59 ± 0.23
CC(C)(C)OC(=O)N[C@H]1CCCCC/C=C\[C@@H]2C[C@@]2(C(=O)NS(=O)(=O)C2CC2)NC(=O)[C@@H]2C[C@@H](OC(=O)N3Cc4cccc(F)c4C3)CN2C1=O [Danoprevir (ITMN-191)]	-0.2 ± 0.18
O=C(CCc1ccc(O)cc1)c1c(O)cc(O)cc1O [Phloretin]	-2.94 ± 1
Cc1cn([C@H]2C=C[C@@H](CO)O2)c(=O)[nH]c1=O [Stavudine (d4T)]	-1.23 ± 0.24
CS(=O)(=O)c1ccc(C2=C(c3ccccc3)C(=O)OC2)cc1 [Rofecoxib]	1.07 ± 0.15
Oc1cccc(-c2nc(N3CCOCC3)c3oc4ncccc4c3n2)c1	-1.4 ± 0.19
O=C(/C=C/c1ccccc1)NC(NC(=S)Nc1cccc2cccnc12)C(Cl)(Cl)Cl (stereo not drawn) [Salubrinal]	-0.7 ± 0.22
COc1cc([C@@H]2c3cc4c(cc3[C@@H](O[C@@H]3O[C@@H]5CO[C@@H](C)O[C@H]5[C@H](O)[C@H]3O)[C@H]3COC(=O)[C@H]23)OCO4)cc(OC)c1O [Etoposide]	-0.13 ± 0.19

Structure (SMILES)	rod outer segment growth distance Dg [um]
C[N+](C)(C)CC(O)CC(=O)[O-] (racemic) [DL-Carnitine HCl]	-0.3 ± 0.33
CO[C@H]1/C=C/O[C@@]2(C)Oc3c(C)c(O)c4c(O)c(c(/C=N/N5CCN(C6CCCC6)CC5)c(O)c4c3C2=O)NC(=O)/C(C)=C\C=C\[C@H](C)[C@H](O)[C@@H](C)[C@@H](O)[C@@H](C)[C@H](OC(C)=O)[C@@H]1C [Rifapentine]	-0.33 ± 0.2
COc1cc2nc(N(C)CCCNC(=O)C3CCCO3)nc(N)c2cc1OC (stereo not drawn) [Alfuzosin HCl]	-0.33 ± 0.21
CN(C)C(=O)COC(=O)Cc1ccc(OC(=O)c2ccc(NC(=N)N)cc2)cc1 [Camostat Mesilate]	0.05 ± 0.18
O=c1ncn2nc(Sc3ccc(F)cc3F)ccc2c1-c1c(Cl)cccc1Cl	-0.04 ± 0.16
COc1ccc(-c2nc3cc(C4=NNC(=O)CC4C)ccc3[nH]2)cc1 (stereo not drawn) [Pimobendan]	-0.89 ± 0.18
CCN(c1cc(-c2ccc(CN3CCOCC3)cc2)cc(C(=O)NCc2c(C)cc(C)[nH]c2=O)c1C)C1CCOCC1	-0.34 ± 0.21
COc1ccc(COc2cc3oc(=O)c4cc(C(C)O)ccc4c3cc2OC)cc1 (stereo not drawn) [Palomid 529 (P529)]	-2.44 ± 0.38
C[C@@H](O)[C@H]1C(=O)N2C(C(=O)O)=C(S[C@@H]3CN[C@H](C(=O)N(C)C)C3)[C@H](C)[C@H]12 [Meropenem]	0.49 ± 0.19
CCOC(=O)N1c2ccc(C(F)(F)F)cc2[C@@H](N(Cc2cc(C(F)(F)F)cc(C(F)(F)F)c2)C(=O)OC)C[C@H]1CC [Torcetrapib]	-0.44 ± 0.17
CNC(=O)c1c(F)cccc1Nc1nc(Nc2cc3c(cc2OC)CCN3C(=O)CN(C)C)nc2[nH]ccc12	-1.71 ± 0.24
Cc1cnc(Nc2ccc(OCCN3CCCC3)cc2)nc1Nc1cccc(S(=O)(=O)NC(C)(C)C)c1	-1.2 ± 0.15
Cc1c(Nc2ncccc2C(=O)O)cccc1C(F)(F)F [Flunixin Meglumin]	0.42 ± 0.21
Nc1cccc2c1CN(C1CCC(=O)NC1=O)C2=O (stereo not drawn) [Lenalidomide (CC-5013)]	0.25 ± 0.19
CC(=O)N[C@@H](CS)C(=O)O [Acetylcysteine]	-0.76 ± 0.22
Cc1ccc(Nc2c(F)cccc2Cl)c(CC(=O)O)c1 [Lumiracoxib]	-0.53 ± 0.18
C[C@]12CCC3=C4CCC(=O)C=C4CC[C@H]3[C@@H]1CC[C@@]2(O)CC#N [Dienogest]	0.18 ± 0.23
CC(C[N+](C)(C)C)OC(N)=O (stereo not drawn) [Bethanechol chloride]	0.56 ± 0.28
CC(C)c1nc(N(C)S(C)(=O)=O)nc(-c2ccc(F)cc2)c1/C=C/[C@@H](O)C[C@@H](O)CC(=O)O [Rosuvastatin Calcium]	-0.27 ± 0.29

Structural class: the compounds so far containing a CF3 group.
Structure (SMILES)	rod outer segment growth distance Dg [um]
CCOC(=O)N1c2ccc(C(F)(F)F)cc2[C@@H](N(Cc2cc(C(F)(F)F)cc(C(F)(F)F)c2)C(=O)OC)C[C@H]1CC [Torcetrapib]	-0.44 ± 0.17
Cc1c(Nc2ncccc2C(=O)O)cccc1C(F)(F)F [Flunixin Meglumin]	0.42 ± 0.21

Reference: the supplement of paper PMC6143611
